PubChem BioAssay AID743255 (National Center for Advancing Translational Sciences (NCATS), 2014)
Hit rate of the full screen: of about 390,000 compounds, about 910 (0.23%) were called active. Inconclusive results, whose numbers are uncertain, are shown with a selection of clear calls. Calls come from the whole dose curve; as a rule, active = well fitted inhibition curve with a large enough effect; inconclusive = small, poorly fitted or top-dose-only effect; inactive = no such curve, though single readings can be large or run the other way. A potency beside an inconclusive call is a rough fit, not a confirmed value.

Chains of the proteins cited; added tags and fusions are not shown. Lines headed by an entry give the natural chain unless they say otherwise; changes in a name come on top.
UniProt O94782: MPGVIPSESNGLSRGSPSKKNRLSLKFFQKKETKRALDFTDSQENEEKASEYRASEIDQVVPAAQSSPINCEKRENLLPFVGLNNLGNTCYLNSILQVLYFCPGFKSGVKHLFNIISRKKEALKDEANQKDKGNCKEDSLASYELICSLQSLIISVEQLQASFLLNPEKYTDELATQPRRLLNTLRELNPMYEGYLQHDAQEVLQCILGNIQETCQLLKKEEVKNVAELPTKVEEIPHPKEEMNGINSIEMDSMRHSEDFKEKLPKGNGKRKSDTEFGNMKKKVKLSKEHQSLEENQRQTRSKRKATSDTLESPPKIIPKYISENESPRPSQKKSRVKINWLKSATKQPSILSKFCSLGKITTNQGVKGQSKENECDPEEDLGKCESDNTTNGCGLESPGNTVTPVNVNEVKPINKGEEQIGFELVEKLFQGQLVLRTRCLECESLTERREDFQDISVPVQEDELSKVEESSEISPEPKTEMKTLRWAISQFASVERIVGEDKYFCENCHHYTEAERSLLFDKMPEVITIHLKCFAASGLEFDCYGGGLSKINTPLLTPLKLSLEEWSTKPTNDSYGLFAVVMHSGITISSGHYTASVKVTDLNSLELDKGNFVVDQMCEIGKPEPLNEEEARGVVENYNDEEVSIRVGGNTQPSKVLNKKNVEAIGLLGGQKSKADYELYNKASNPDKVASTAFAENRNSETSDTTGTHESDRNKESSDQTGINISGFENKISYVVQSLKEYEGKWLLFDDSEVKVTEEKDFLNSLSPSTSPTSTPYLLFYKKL

These compounds were tested against Ubiquitin carboxyl-terminal hydrolase 1 (Homo sapiens) (UniProt O94782) (assay: Inhibitors of USP1/UAF1: Primary Screen). Conditions: recombinant USP1/UAF1, Ub-Rhodamine cleavage fluorescence; activity change, negative = inhibition: at 57.1 µM (top of the series).
In short: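 USP1/UAF1 complex at 1 nM was preincubated with compound for 15 min at room temperature, then Ub-Rho substrate (150nM final) was added. Fluorescence (480/540 nm) was read kinetically, 6 reads every 60 seconds.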
% is set by controls: 0 for no effect and ±100 for the full control effect; potency is the fitted concentration of half-maximal effect.
Note: nearly all actives have a fitted effect of over 60% in size.

Activity change, negative = inhibition, inactive:
Oc1c(C(c2ccccc2F)N2CCOCC2)sc2nc(-c3ccco3)nn12 (centres undefined) -6.82%
COc1ccc(CCNc2nc(-c3ccc(C)cc3)cc(C(F)F)n2)cc1OC -14.3%
O=C(NCC(c1ccco1)N1CCCCC1)c1cccc(NS(=O)(=O)c2ccc(Br)cc2)c1 (centres undefined) -13.4%
CC1CN2C(c3ccc(Cl)cc3)=CSC2=N1 (centres undefined) -0.332%
CCCCN(C)CCCNC(=O)CN1C(=O)COc2ccc(S(=O)(=O)N3CCC(C)CC3)cc21 -25.5%
Cc1[nH]c2ccccc2c1C(c1ccncc1)N1CCCCC1 (centres undefined) -7.22%
COc1cc(/C=N\Nc2nc(-c3ccc(C)cc3)c(NC(C)=O)s2)ccc1O -20.5%
COc1ccc(-c2ccc(CN3C(C)C(=O)N(Cc4cn(CCC5OCCO5)nn4)CCS3(=O)=O)cc2)cc1 (centres undefined) -28.8%
O=C(NN=Cc1ccc2c(c1)OCO2)C1CC1 -15.5%
CC1=NN(C(N)=S)C(=O)C1N=Nc1ccccc1O (centres undefined) 3.16%
CCOc1ccc(-n2cc(C(=O)Nc3ccccc3OCC)c3cc(OC)c(OC)cc3c2=O)cc1 -13.9%
S=C(NCCSCc1ccc(Cl)c(Cl)c1)Nc1ccccc1 -24%
CCN(CC)S(=O)(=O)c1cccc(C(=O)N/N=C(\C)c2ccc(O)cc2O)c1 -10.5%
C=CCNc1n[nH]c(=S)s1 -15%
COc1ccccc1C1C(C(N)=O)=C(C)Nc2nc(-c3ccccc3Cl)nn21 (centres undefined) -19.8%
Cc1c(C(=O)NN)sc(-c2ccccc2)c1C#N -18.1%
CCOc1ccccc1NC(=O)N1CCc2c(sc3c2CCCC3)C1c1ccccc1 (centres undefined) -14.3%
O=C(c1ccc(N2CCOCC2)c([N+](=O)[O-])c1)N1CCCC(C(F)(F)F)C1 (centres undefined) -8.78%
Cc1ccc(CN2c3ccccc3-c3nc(SCC(=O)Nc4c(C)cc(C)cc4C)ncc3S2(=O)=O)cc1 -18.8%

An excerpt from above in order of molecular weight, ascending.
Activity change, negative = inhibition, inactive:
C=CCNc1n[nH]c(=S)s1 -15%
CC1CN2C(c3ccc(Cl)cc3)=CSC2=N1 (centres undefined) -0.332%
Cc1[nH]c2ccccc2c1C(c1ccncc1)N1CCCCC1 (centres undefined) -7.22%
S=C(NCCSCc1ccc(Cl)c(Cl)c1)Nc1ccccc1 -24%
COc1ccccc1C1C(C(N)=O)=C(C)Nc2nc(-c3ccccc3Cl)nn21 (centres undefined) -19.8%

Next part.

Activity change, negative = inhibition, inconclusive:
NCCCCCc1nnc(SCC(N)=O)o1 -29.9% [inhibitor]

Potency, active:
Cc1ccc(C(=O)c2c(C)oc3c2C(=O)C(=O)c2ccccc2-3)cc1 14.1 µM

Potency, inconclusive:
CN1CC(C(=O)Nc2ccc(F)c(Cl)c2)CC1=O (centres undefined) 39.8 µM [inhibitor, partial curve]
Cc1cccc(NC(=O)c2oc3c(c2C)-c2[nH]ncc2CC3)c1C 35.5 µM [inhibitor, partial curve, poor fit]
CC(C)c1ccc2c(c1)CCC1C(C)(CN)CCCC21C (centres undefined) 39.8 µM [inhibitor, partial curve]
Cc1nnc(NN)n(N)c1=O 44.7 µM [inhibitor, partial curve]
CC1(C)Cc2c(C#N)c(NCCc3ccccc3)nc(-c3ccco3)c2CO1 56.2 µM [inhibitor, partial curve, poor fit]
COc1ccc(OCC(=O)Nc2cccc3cccnc23)cc1 44.7 µM [inhibitor, partial curve]
COc1ccc(OC)c(/C=C/C(=O)c2ccc(Cl)cc2)c1 25.1 µM [inhibitor, partial curve]
CCCCNC(=O)C1CCN(C(=O)N2CC(C)Oc3ccc(Cl)cc32)CC1 (centres undefined) 2.24 µM [inhibitor, partial curve]
CCOC(=O)c1c(NC(=O)COC(=O)CCNS(=O)(=O)c2ccccc2)sc(C(=O)N(C)C)c1C 6.31 µM [inhibitor, full curve]
CCOC(=O)N1CCc2c(sc(NCc3sccc3C)c2C(=O)Nc2cc(OC)ccc2OC)C1 31.6 µM [inhibitor, partial curve, poor fit]
O=C1c2cccc3c(N4CCCCC4)ccc(c23)C(=O)N1c1cccc(O)c1 31.6 µM [inhibitor, partial curve, poor fit]
COCCNC(=O)c1c(N)n(-c2ccccc2)c2nc3ccccc3nc12 0.891 µM [inhibitor, full curve, poor fit]
O=C(Nc1ccc(OC(F)(F)F)cc1)C1CCCN(S(=O)(=O)c2cccc3nonc23)C1 (centres undefined) 7.94 µM [inhibitor, partial curve]
O=C(COc1ccc(Cl)cc1)Nc1sc2c(c1C(=O)Nc1cccc(Cl)c1)CCCC2 50.1 µM [inhibitor, partial curve, poor fit]
CN(C)c1ccc(-c2ccc3c(=O)c4ccccc4n(C)c3c2)cn1 44.7 µM [inhibitor, partial curve, poor fit]
CC1CC1c1ccc(/C=C(\C#N)C(=O)Nc2cccc(Cl)c2Cl)o1 (centres undefined) 39.8 µM [inhibitor, partial curve, poor fit]
COc1ccccc1-c1sc2ccccc2c1-c1ccc2c(c1)OCO2 50.1 µM [inhibitor, partial curve, poor fit]
Cc1ccc(S(=O)(=O)/C(C#N)=C/c2c(N3CCC(C(N)=O)CC3)nc3c(C)cccn3c2=O)cc1 79.4 µM [inhibitor, partial curve, poor fit]
COC(=O)c1cc(=O)c2c(C)nc(C(Cl)(Cl)Cl)nc2[nH]1 4.47 µM [inhibitor, full curve, poor fit]
CCOc1ccccc1CNC(=O)c1ccc(NC(=O)C2=C(C)OCCS2)cc1 126 µM [inhibitor, partial curve, poor fit]
CCOC(=O)C1=C(C)c2ccccc2OC1(C)C(=O)OCC (centres undefined) 44.7 µM [inhibitor, partial curve, poor fit]
CSc1ccc(CCNC(=O)c2cc(-c3ccccc3)c(N3CCOCC3)s2)cc1 0.251 µM [inhibitor, full curve, poor fit]
COCCCNC(=O)CN1C(=O)COc2ccc(S(=O)(=O)N3CCCCCC3)cc21 0.316 µM [inhibitor, full curve, poor fit]
O=C(O)CCCN1C(=O)/C(=C\c2ccccc2OCc2ccccc2)SC1=S 31.6 µM [inhibitor, single point]
COc1ccc(Cn2nnnc2CN2CCN(c3ccc(OC)cc3)CC2)cc1 39.8 µM [inhibitor, partial curve]
O=C(NCc1nc2ccccc2[nH]1)C1=C[C@@H](c2csc3ccccc23)C[C@@H](OCc2ccc(CO)cc2)O1 39.8 µM [inhibitor, partial curve]
COc1ccccc1OCC(=O)Nc1nnc2n1CCS2 6.31 µM [inhibitor, full curve, poor fit]
CC1CCN(c2nc3ccc(C(=O)NCCCN4CCCCC4C)cc3s2)CC1 (centres undefined) 0.708 µM [inhibitor, full curve, poor fit]
CCCOc1cccc(C(=O)Nc2cccnc2)c1 35.5 µM [inhibitor, single point]
CC1=CC(C2CC(=O)N(c3ccc(C)cc3)C2=O)CC2C(=O)N(c3ccc(C)cc3)C(=O)C12 (centres undefined) 5.01 µM [inhibitor, partial curve, poor fit]
C[C@H](O)[C@@H]1C(=O)N2CCc3c([nH]c4ccccc34)[C@@H]2C[C@@H]1N(C)Cc1ccc(Cl)cc1 28.2 µM [inhibitor, partial curve]
Brc1ccc2c(c1)NC(c1cccnc1)=NC(c1ccccc1)=N2 4.47 µM [inhibitor, partial curve]
C=CCC[C@@H](Cc1ccc(F)cc1)C(=O)OC[C@@H]1CCCN1C(=O)[C@H](CC=C)CC(=O)N[C@H](CO)Cc1ccccc1 44.7 µM [inhibitor, partial curve, poor fit]
O=C(CNc1ccccc1)N/N=C/c1c(O)ccc2ccccc12 8.91 µM [inhibitor, partial curve, poor fit]
C=CCOn1c(=O)c(-c2cc3ccccc3o2)[n+]([O-])c2ccccc21 35.5 µM [inhibitor, partial curve]
O=C(O)c1cccc2c1C(=O)c1ccc(N3CCCCC3)cc1S2(=O)=O 56.2 µM [inhibitor, partial curve, poor fit]
COc1ccc(NC(=O)Nc2cc(-c3cn4cccnc4n3)ccc2OC)cc1 35.5 µM [inhibitor, partial curve]
COc1ccc(-c2cc3nc(C)c(CCC(=O)N4CCN(c5ccccc5F)CC4)c(C)n3n2)c(OC)c1 12.6 µM [inhibitor, partial curve, poor fit]
Cc1ccc(NC(=O)Cn2c(=O)oc3cc(S(=O)(=O)N4CCCCC4)ccc32)c(C)c1 44.7 µM [inhibitor, partial curve, poor fit]
CN(C[C@H](Cc1ccccc1)N(C[C@H](CC1CCCCC1)N(CCc1ccccc1)N=O)N=O)N=O 7.94 µM [inhibitor, partial curve, poor fit]
COc1cc2c(cc1OC)CN(C(=O)C1(c3ccccc3)CC1)CC2 39.8 µM [inhibitor, partial curve, poor fit]
COc1ccc(C2=C(C)C(=NCc3ccc(OC(C)C)cc3)NS2(=O)=O)cc1 25.1 µM [inhibitor, single point]
Cc1ccc(S(=O)(=O)N2CCN(Cc3ccc4c(c3)OCO4)CC2)cc1 31.6 µM [inhibitor, single point]
